Results from one PubChem assay

From PubChem BioAssay record AID1224904 (Broad Institute, 2016).

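293T-iDUX4 dual-reporter cells; luminescence of the tet-on Italica luciferase control is read after 24 h.
The test concentration is not given here.
Percent change in the Italica control signal; more negative values mean stronger inhibition, which points to nonspecific, tet-on or cytotoxic effects.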

Values are in %.
Common to all entries: measured here: Italica tet-on control reporter.
Part of the compounds only, not a random draw; the main read-out is not listed here.

| Compound | activity change (%) |
|---|---|
| `COc1cccc(NC(=O)N2CC(=O)N3[C@H](CO)[C@H](c4ccc(C#CCC5CCCC5)cc4)[C@H]3C2)c1` | -7.271 |
| `CCCC#Cc1ccc([C@@H]2[C@@H](CO)N3C(=O)CN(S(=O)(=O)Cc4ccccc4)C[C@@H]23)cc1` | -13.75 |
| `O=C(c1ccc2c(c1)OCO2)N1CC(=O)N2[C@H](CO)[C@H](c3ccc(C#CC4CCCC4)cc3)[C@H]2C1` | -28.24 |
| `COc1ccc(C#Cc2cccc(-c3nc(C(=O)NCCCN4CCOCC4)cc4c3[C@@H](CCO)N(S(=O)C(C)(C)C)C4)c2)cc1OC` (some centres unmarked) | -38.74 |
| `COc1ccc2c3c(n(C)c2c1)[C@@H](CO)N(Cc1ccccc1Cl)CC31CCN(C(=O)CC2CC2)CC1` | -23.56 |
| `COc1cc(CN2C[C@@H]3N[C@H](C2)C3c2ccc(-c3ccncc3)cc2)cc(OC)c1` (some centres unmarked) | -0.0007883 |
| `CCC(=O)N1CC[C@@H]2[C@H](CO)Nc3ccc(-c4cccc(C#N)c4)cc3[C@@H]21` | -14.79 |
| `O=C(Nc1ccccc1F)N1CCCCN2[C@H](CO)[C@@H](c3ccc(C#Cc4cccnc4)cc3)[C@@H]2C1` | -25.24 |
| `Cc1ccc(S(=O)(=O)N(C)C[C@@H]2OCc3ccccc3-c3c(n(C)c4ccccc34)C(=O)N([C@@H](C)CO)C[C@@H]2C)cc1` | -48.35 |
| `CN1c2ccc(-c3ccccc3)cc2[C@H]2[C@H](CCN2S(=O)(=O)c2ccccc2F)[C@@H]1CO` | -22.29 |
| `O=C(C[C@H]1CC[C@@H]2[C@H](COC[C@@H](O)CN2Cc2cccc(Cl)c2)O1)Nc1nccs1` | -11.73 |
| `C[C@H](CO)N1C[C@H](C)[C@H](CN(C)Cc2ccccc2C(F)(F)F)OCc2cnnn2CCCC1=O` | -24.53 |
| `CCCN1C[C@H](C)[C@@H](OC)CN(C)C(=O)c2cc(NC(=O)c3cccc(OC)c3)ccc2OC[C@@H]1C` | -4.374 |
| `N#C[C@H]1[C@@H](c2ccccc2C2=CCCCC2)[C@H](CO)N1S(=O)(=O)c1ccccc1` | -7.415 |
| `CC(C)CC#Cc1ccc([C@@H]2[C@H]3CN(S(=O)(=O)c4cccc(F)c4)CC(=O)N3[C@H]2CO)cc1` | -13.4 |
| `O=C(C[C@@H]1CC[C@@H](NC(=O)c2ccc3c(c2)OCO3)[C@H](CO)O1)NCc1ccc(Oc2ccccc2)cc1` | -21.28 |
| `COc1ccc(S(=O)(=O)N2C[C@@H](O)COC[C@@H]3O[C@@H](CC(=O)NCc4ccc(Cl)c(Cl)c4)CC[C@H]32)cc1` | -35.41 |
| `O=C(Nc1ccc(C(F)(F)F)cc1)N[C@@H]1C=C[C@@H](CC(=O)N2CCCCC2)O[C@@H]1CO` | -5.76 |
| `Cc1ccc(-c2ccccc2[C@H]2[C@@H](CO)N(C(=O)NC3CCCC3)[C@H]2C#N)cc1` | -52.67 |
| `COc1ccc2c3c(n(C)c2c1)[C@H](CO)N(C(=O)c1ccccc1)CC31CCN(C(=O)c2ccccc2)CC1` | -13.73 |
| `O=C1CN(S(=O)(=O)Cc2ccccc2)C[C@@H]2[C@@H](c3ccc(C#CCC4CCCC4)cc3)[C@H](CO)N12` | -13.79 |
| `O=C(Cc1ccncc1)N1CC[C@@H]2[C@H]1c1cc(-c3ccccc3F)ccc1N[C@@H]2CO` | -5.536 |
| `Cc1cccc(S(=O)(=O)N2CC[C@H]3[C@@H](CO)N(C)c4ccc(-c5cccc(C#N)c5)cc4[C@H]32)c1` | -56.13 |
| `COc1ccc2c3c([nH]c2c1)[C@@H](CO)N(Cc1ccccc1)CC31CCN(S(C)(=O)=O)CC1` | 2.543 |
| `O=C(c1cccc(F)c1)N1CC(=O)N2[C@H](C1)[C@H](c1ccc(/C=C/c3ccccc3)cc1)[C@@H]2CO` | -31.72 |
| `C[C@H](CO)N1C[C@H](C)[C@H](CN(C)C(=O)c2ccc(F)cc2)OCc2ccccc2-c2c(n(C)c3ccccc23)C1=O` | -93.59 |
| `O=S(=O)(c1ccccc1)N1CCCCN2[C@H](C1)[C@H](c1ccc(-c3ccccc3)cc1)[C@@H]2CO` | -14.82 |
| `C[C@H](NC(=O)C[C@@H]1CC[C@H](NC(=O)Cc2ccccn2)[C@H](CO)O1)c1ccccc1` | -15.7 |
| `O=C(c1ccc(F)cc1)N1CCCCN2[C@H](CO)[C@H](c3ccc(-c4ccccc4)cc3)[C@H]2C1` | -28.48 |
| `COc1ccc(C#Cc2ccc([C@@H]3[C@@H](CO)N4CCCCN(C(=O)Nc5cccc(F)c5)C[C@@H]34)cc2)cc1` | -13.95 |
| `C[C@H](CO)N1C[C@H](C)[C@@H](CN(C)C(=O)c2cc(-c3ccccc3)on2)OCc2cn(nn2)CCCC1=O` | -3.045 |
| `N#Cc1cccc(-c2ccc3c(c2)[C@@H]2[C@@H](CCN2C(=O)c2ccccc2F)[C@H](CO)N3)c1` | -19.86 |
| `O=C(C1CCC1)N1C[C@@H]2N[C@H](C1)C2c1ccc(/C=C/c2ccccc2)cc1` (some centres unmarked) | 0.7969 |
| `Cc1ccc(-c2ccc([C@@H]3[C@@H](CO)N4CCCCN(S(=O)(=O)c5ccccc5C)C[C@@H]34)cc2)cc1` | -3.309 |
| `COc1ccc(C#Cc2ccc([C@H]3[C@@H](CO)N4CCCCN(C(=O)Nc5ccccc5)C[C@@H]34)cc2)cc1` | -12.45 |

Repeated from the top, 4 entries:

With COc1cccc(NC(=O)N2CC(=O)N3[C@H](CO)[C@H](c4ccc(C#CCC5CCCC5)cc4)[C@H]3C2)c1 the assay gave activity change -7.271%.
With CCCC#Cc1ccc([C@@H]2[C@@H](CO)N3C(=O)CN(S(=O)(=O)Cc4ccccc4)C[C@@H]23)cc1 the assay gave activity change -13.75%.
With O=C(c1ccc2c(c1)OCO2)N1CC(=O)N2[C@H](CO)[C@H](c3ccc(C#CC4CCCC4)cc3)[C@H]2C1 the assay gave activity change -28.24%.
With COc1ccc(C#Cc2cccc(-c3nc(C(=O)NCCCN4CCOCC4)cc4c3[C@@H](CCO)N(S(=O)C(C)(C)C)C4)c2)cc1OC (some centres unmarked) the assay gave activity change -38.74%.